Measured values taken from patent US20060057665A1, “Galectin-14 therapeutic molecule and uses thereof” (The University of Melbourne, priority 2001, published 2006).
Results are given in words; binding and its absence hold for the method and conditions named. Some entries that bind do so weakly or less than the wild type. Tags and fused reporters may be left off the sequences shown.

Chains of the proteins cited; added tags and fusions are not shown. Lines headed by an entry give the natural chain unless they say otherwise; changes in a name come on top.
UniProt P19137: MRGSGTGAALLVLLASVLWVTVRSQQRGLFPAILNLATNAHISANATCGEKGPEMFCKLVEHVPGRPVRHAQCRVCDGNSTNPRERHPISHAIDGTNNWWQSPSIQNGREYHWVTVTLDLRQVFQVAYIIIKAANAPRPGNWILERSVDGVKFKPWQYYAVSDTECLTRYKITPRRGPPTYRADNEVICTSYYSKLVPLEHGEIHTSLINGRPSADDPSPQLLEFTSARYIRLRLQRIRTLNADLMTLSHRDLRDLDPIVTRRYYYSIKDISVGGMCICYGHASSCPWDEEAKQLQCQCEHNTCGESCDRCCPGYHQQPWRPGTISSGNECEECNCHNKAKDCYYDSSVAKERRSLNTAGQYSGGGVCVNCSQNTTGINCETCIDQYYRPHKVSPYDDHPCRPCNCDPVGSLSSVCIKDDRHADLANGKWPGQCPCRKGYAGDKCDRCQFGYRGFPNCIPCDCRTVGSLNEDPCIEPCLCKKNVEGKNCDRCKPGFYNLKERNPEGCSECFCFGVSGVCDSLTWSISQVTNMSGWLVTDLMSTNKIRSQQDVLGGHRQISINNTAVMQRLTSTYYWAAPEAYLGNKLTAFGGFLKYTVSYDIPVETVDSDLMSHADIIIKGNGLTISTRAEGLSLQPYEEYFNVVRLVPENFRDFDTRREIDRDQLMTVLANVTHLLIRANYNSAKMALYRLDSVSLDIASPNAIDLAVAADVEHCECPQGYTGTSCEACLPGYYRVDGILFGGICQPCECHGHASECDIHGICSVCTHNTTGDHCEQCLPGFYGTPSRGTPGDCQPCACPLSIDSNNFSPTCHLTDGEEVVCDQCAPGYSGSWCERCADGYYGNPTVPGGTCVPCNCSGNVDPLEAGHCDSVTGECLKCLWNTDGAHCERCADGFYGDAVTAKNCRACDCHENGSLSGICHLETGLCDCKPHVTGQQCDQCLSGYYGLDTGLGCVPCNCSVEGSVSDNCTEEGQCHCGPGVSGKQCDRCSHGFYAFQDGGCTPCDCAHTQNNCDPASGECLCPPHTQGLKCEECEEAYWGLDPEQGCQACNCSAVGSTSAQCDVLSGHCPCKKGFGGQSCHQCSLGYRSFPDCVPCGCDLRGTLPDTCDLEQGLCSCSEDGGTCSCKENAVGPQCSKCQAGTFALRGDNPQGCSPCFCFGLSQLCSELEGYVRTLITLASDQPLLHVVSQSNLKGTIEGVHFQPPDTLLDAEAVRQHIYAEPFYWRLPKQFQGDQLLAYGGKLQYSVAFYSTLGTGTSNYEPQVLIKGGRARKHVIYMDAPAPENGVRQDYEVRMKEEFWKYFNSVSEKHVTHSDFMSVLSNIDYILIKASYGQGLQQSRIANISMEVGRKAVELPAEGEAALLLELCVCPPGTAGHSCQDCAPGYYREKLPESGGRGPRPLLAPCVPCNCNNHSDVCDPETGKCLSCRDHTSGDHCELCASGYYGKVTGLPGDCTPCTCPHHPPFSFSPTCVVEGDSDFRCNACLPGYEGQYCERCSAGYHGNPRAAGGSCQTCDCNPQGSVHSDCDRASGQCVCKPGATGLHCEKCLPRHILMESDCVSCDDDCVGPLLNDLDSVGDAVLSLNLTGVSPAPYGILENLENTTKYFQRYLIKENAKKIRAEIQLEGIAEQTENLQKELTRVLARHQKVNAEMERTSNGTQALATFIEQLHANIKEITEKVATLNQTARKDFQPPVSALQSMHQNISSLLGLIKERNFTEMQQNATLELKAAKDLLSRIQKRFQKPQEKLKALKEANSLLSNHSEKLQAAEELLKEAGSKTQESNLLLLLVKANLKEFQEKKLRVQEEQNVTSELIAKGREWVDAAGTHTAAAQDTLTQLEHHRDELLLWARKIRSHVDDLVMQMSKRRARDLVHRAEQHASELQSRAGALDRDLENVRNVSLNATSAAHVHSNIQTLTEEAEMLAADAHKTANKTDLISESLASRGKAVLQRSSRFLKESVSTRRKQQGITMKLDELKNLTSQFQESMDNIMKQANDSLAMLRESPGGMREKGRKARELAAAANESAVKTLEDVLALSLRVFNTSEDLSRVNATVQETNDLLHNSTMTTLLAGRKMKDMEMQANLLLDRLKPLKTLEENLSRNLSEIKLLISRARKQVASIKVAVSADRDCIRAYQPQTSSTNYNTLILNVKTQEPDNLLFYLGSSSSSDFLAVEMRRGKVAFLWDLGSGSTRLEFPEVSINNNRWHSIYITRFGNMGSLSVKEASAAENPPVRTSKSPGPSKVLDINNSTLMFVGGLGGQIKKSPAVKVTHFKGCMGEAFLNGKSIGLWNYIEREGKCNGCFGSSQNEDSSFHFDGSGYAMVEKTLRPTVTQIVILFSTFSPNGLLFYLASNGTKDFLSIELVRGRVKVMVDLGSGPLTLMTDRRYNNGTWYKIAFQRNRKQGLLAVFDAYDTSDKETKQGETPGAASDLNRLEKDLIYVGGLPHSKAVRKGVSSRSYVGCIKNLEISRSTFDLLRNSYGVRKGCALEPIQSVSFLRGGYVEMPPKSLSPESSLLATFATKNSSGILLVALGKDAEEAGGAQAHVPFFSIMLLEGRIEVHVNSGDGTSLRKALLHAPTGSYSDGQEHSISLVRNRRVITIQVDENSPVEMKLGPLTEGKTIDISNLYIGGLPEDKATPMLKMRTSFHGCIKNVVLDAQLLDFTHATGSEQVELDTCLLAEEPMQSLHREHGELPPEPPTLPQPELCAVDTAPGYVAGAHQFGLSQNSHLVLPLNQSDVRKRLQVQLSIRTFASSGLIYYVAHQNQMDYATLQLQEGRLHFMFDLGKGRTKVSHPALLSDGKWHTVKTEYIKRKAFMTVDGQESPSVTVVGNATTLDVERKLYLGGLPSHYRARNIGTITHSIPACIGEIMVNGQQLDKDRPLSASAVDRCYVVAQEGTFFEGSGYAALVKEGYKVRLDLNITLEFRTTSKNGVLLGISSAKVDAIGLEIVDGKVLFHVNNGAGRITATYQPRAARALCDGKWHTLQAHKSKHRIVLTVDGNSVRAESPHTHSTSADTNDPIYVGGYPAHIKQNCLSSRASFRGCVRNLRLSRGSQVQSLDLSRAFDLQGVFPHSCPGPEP
UniProt P02469: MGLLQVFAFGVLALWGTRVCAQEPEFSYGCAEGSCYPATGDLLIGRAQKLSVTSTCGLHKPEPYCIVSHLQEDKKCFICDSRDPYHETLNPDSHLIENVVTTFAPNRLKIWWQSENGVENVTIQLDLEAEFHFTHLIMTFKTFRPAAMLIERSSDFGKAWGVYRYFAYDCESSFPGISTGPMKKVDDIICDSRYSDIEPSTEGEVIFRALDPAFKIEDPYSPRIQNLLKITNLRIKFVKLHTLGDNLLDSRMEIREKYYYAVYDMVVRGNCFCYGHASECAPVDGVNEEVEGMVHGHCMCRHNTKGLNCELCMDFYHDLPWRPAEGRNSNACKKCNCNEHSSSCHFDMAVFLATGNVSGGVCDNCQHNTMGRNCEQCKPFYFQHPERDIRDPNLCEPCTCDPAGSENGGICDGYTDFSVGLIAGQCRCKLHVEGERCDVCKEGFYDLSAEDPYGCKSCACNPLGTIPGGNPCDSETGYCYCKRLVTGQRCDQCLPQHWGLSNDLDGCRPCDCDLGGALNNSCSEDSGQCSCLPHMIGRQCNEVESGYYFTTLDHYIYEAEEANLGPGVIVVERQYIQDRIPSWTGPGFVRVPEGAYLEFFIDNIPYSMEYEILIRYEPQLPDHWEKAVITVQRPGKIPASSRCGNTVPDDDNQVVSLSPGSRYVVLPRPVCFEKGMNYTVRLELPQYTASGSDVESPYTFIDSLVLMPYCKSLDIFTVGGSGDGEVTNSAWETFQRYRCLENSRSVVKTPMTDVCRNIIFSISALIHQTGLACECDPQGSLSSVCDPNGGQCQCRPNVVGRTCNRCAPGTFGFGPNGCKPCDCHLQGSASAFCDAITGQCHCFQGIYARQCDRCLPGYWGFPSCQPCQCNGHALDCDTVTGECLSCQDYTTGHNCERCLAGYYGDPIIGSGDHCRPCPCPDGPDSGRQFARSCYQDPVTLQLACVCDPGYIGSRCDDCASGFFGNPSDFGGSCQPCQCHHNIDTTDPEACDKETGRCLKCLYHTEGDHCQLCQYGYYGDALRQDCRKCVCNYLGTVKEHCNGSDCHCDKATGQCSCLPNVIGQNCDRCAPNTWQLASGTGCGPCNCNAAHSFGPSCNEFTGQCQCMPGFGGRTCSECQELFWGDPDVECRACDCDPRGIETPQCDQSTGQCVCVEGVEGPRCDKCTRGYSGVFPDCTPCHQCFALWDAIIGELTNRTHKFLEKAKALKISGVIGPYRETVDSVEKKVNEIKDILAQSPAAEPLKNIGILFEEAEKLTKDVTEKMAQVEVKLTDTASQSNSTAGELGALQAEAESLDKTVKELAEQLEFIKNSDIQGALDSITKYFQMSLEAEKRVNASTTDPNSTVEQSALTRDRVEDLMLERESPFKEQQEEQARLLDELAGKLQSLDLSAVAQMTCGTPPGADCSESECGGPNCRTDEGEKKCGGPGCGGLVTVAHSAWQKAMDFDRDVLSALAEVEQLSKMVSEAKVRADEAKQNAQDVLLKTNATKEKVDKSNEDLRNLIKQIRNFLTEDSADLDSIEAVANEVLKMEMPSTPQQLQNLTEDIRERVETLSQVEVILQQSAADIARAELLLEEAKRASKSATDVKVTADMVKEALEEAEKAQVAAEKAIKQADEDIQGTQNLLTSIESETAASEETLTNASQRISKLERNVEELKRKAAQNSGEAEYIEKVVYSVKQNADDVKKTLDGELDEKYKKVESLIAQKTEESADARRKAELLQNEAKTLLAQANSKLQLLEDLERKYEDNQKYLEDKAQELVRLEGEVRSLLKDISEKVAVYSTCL
UniProt P02468: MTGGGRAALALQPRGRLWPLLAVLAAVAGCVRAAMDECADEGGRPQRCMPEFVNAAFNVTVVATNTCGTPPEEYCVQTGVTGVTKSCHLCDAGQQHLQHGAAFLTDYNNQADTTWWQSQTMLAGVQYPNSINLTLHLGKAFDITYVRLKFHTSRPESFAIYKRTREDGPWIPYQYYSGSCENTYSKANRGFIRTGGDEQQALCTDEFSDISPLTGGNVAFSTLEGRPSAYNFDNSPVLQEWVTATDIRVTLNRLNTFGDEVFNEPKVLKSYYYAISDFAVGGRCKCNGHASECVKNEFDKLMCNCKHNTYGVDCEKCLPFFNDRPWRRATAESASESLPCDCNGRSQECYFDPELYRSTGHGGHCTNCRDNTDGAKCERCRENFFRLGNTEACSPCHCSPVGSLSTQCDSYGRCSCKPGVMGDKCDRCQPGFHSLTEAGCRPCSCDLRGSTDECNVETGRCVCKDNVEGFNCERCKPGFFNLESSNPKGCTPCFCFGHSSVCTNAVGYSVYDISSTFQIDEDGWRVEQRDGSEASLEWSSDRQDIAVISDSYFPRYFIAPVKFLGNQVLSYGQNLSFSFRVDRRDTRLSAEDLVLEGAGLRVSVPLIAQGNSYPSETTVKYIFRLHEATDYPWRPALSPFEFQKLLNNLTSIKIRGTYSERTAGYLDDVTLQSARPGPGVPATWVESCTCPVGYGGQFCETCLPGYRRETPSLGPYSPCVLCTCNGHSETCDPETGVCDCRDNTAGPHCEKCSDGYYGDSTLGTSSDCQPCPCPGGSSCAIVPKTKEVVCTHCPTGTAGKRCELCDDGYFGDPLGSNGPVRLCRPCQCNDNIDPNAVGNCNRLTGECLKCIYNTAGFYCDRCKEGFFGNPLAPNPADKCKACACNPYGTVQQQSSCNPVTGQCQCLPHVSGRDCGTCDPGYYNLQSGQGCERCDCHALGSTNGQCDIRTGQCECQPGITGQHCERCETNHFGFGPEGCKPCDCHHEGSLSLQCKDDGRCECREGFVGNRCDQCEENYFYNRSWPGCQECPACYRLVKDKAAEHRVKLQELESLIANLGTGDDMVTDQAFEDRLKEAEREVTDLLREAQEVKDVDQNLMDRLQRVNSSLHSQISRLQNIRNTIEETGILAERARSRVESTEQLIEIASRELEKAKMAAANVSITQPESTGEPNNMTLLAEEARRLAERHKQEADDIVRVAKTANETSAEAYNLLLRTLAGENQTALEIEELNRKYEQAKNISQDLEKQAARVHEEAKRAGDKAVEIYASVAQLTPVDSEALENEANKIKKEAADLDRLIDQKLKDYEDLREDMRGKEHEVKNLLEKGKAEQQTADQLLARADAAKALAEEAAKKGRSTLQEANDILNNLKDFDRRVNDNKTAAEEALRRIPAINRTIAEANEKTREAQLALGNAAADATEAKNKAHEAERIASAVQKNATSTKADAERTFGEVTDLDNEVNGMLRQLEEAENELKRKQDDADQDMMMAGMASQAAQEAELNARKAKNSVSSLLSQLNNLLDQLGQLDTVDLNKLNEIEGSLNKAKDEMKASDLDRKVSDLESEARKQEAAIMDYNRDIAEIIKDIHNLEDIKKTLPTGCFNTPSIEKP

Molecular target: laminin from Engelbreth-Holm-Swarm murine sarcoma (Sigma) (murine) (UniProt P19137+P02469+P02468)
Assay: solid-phase binding assay, laminin coated on 96-well plate, anti-GST HRP detection, A450

binding: binds
B1: recombinant GST-galectin-14 fusion protein (protein, not shown: a dimerising Fc or GST)
chain: MQSESGHEGDEELAFRDTQPPYINLPIPFTGRIEGGLQDGHKVTVMGRVLSTDENRFQVDFQMGISDTNNVAFHFNPRFEGSGYVVCNTMQLGNWGPEEKKMQMPFQKGSLFEICFKVDSSSFKVTVNGSIFLDYAHRLPFEQVNAISIGGCVHVSYISFQI
